Results deposited as PubChem BioAssay AID652243 (Drosophila RNAi Screening Center, 2013)
The deposit covers about 24,000 reagents; below is an unselected part of those with a known target gene and a result. Of all reagents, 246 (1%) are marked active. 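Plates not normalised; calls are printed but the firefly/Renilla ratio behind them is not deposited; fold cut for lowering reported inconsistently.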 The raw values are shown without normalisation. Entries without a mark were called inactive. Not given: the amount of reagent.

Test: 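Fly genes required for human androgen receptor driven transcription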 (primary screen)
Cells: Drosophila S2R+ cells
Reagents: long dsRNA against Drosophila genes
Timing: 72 h (48 h, then 24 h hormone)
Treatment: synthetic androgen R1881 at 10 nM for 24 h
Measured: 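Per-well raw luminescence of the androgen-driven firefly reporter and of the Renilla control, two replicates each, without normalisation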
Reading the numbers: firefly reporter light: higher = more light from androgen-responsive reporter; Renilla control light: higher = more constitutive control signal (cell number, transfection)
Active means: 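Across duplicate plates, a knock-down whose log firefly/Renilla ratio shifted a set fold down or up from the GFP/LacZ control mean was a hit; the downward cut appears as both 1.5 and 3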
Calls: active = hit: reporter lowered or raised; inactive = no hit

For Patronin [DRSC06756], what was measured?
firefly reporter light, replicate 1: 55094; firefly reporter light, replicate 2: 63914; Renilla control light, replicate 1: 8.91e5; Renilla control light, replicate 2: 8.91e5

With Patronin [DRSC06757], how do the results read?
firefly reporter light, replicate 1: 67681; firefly reporter light, replicate 2: 92198; Renilla control light, replicate 1: 1.24e6; Renilla control light, replicate 2: 1.24e6

Which result is listed for Patronin [DRSC06994]?
firefly reporter light, replicate 1: 71297; firefly reporter light, replicate 2: 64135; Renilla control light, replicate 1: 1.16e6; Renilla control light, replicate 2: 1.16e6

What is on record for dpr14 (defective proboscis extension response 14) [DRSC17767]?
firefly reporter light, replicate 1: 60666; firefly reporter light, replicate 2: 62616; Renilla control light, replicate 1: 6.48e5; Renilla control light, replicate 2: 3.66e5

Which result is listed for dpr14 (defective proboscis extension response 14) [DRSC26488]?
firefly reporter light, replicate 1: 1.26e5; firefly reporter light, replicate 2: 1.35e5; Renilla control light, replicate 1: 1.96e5; Renilla control light, replicate 2: 1.99e5

With Prosbeta4 (Proteasome beta4 subunit) [DRSC02603], how do the results read?
firefly reporter light, replicate 1: 1.53e5; firefly reporter light, replicate 2: 1.42e5; Renilla control light, replicate 1: 1.68e6; Renilla control light, replicate 2: 1.35e6

What is on record for CG42741 [DRSC04593]?
firefly reporter light, replicate 1: 4.24e5; firefly reporter light, replicate 2: 4.09e5; Renilla control light, replicate 1: 3.17e6; Renilla control light, replicate 2: 2.00e6

With CG42741 [DRSC22045], what does the deposit list?
firefly reporter light, replicate 1: 7.92e5; firefly reporter light, replicate 2: 4.97e5; Renilla control light, replicate 1: 2.61e6; Renilla control light, replicate 2: 1.82e6

Which result is listed for CG42741 [DRSC30003]?
firefly reporter light, replicate 1: 3.84e5; firefly reporter light, replicate 2: 2.94e5; Renilla control light, replicate 1: 9.73e5; Renilla control light, replicate 2: 1.14e6

Which result is listed for Tsp96F (Tetraspanin 96F) [DRSC14147]?
firefly reporter light, replicate 1: 88221; firefly reporter light, replicate 2: 1.01e5; Renilla control light, replicate 1: 8.94e5; Renilla control light, replicate 2: 7.98e5

What is on record for TpnC47D (Troponin C at 47D) [DRSC07564]?
firefly reporter light, replicate 1: 2.36e5; firefly reporter light, replicate 2: 2.15e5; Renilla control light, replicate 1: 1.43e6; Renilla control light, replicate 2: 1.16e6

With ltl (larval translucida) [DRSC10206], what does the deposit list?
firefly reporter light, replicate 1: 1.88e5; firefly reporter light, replicate 2: 2.02e5; Renilla control light, replicate 1: 1.65e6; Renilla control light, replicate 2: 1.77e6

What did the screen give for ltl (larval translucida) [DRSC10870]?
firefly reporter light, replicate 1: 1.11e5; firefly reporter light, replicate 2: 1.33e5; Renilla control light, replicate 1: 1.45e6; Renilla control light, replicate 2: 1.37e6

With CG34408 [DRSC17733], what does the deposit list?
firefly reporter light, replicate 1: 1.93e5; firefly reporter light, replicate 2: 1.28e5; Renilla control light, replicate 1: 1.06e6; Renilla control light, replicate 2: 1.01e6

With CG34408 [DRSC23056], how do the results read?
firefly reporter light, replicate 1: 7.38e5; firefly reporter light, replicate 2: 8.28e5; Renilla control light, replicate 1: 1.28e6; Renilla control light, replicate 2: 1.44e6

What did the screen give for CG34408 [DRSC27286]?
firefly reporter light, replicate 1: 4.15e5; firefly reporter light, replicate 2: 4.75e5; Renilla control light, replicate 1: 5.05e5; Renilla control light, replicate 2: 5.56e5

With CG34408 [DRSC28674], what does the deposit list?
firefly reporter light, replicate 1: 4.72e5; firefly reporter light, replicate 2: 4.29e5; Renilla control light, replicate 1: 1.30e6; Renilla control light, replicate 2: 1.08e6

For CG2681 [DRSC18464], what was measured?
firefly reporter light, replicate 1: 82442; firefly reporter light, replicate 2: 1.15e5; Renilla control light, replicate 1: 8.15e5; Renilla control light, replicate 2: 7.63e5

How did the screen score CG2681 [DRSC24864]?
firefly reporter light, replicate 1: 9.87e5; firefly reporter light, replicate 2: 8.00e5; Renilla control light, replicate 1: 8.46e5; Renilla control light, replicate 2: 7.56e5

For MFS17 (Major Facilitator Superfamily Transporter 17) [DRSC37735], how do the results read?
firefly reporter light, replicate 1: 1.05e6; firefly reporter light, replicate 2: 9.33e5; Renilla control light, replicate 1: 2.60e6; Renilla control light, replicate 2: 2.89e6

What is on record for mRpS18C (mitochondrial ribosomal protein S18C) [DRSC16538]?
firefly reporter light, replicate 1: 1.71e5; firefly reporter light, replicate 2: 1.94e5; Renilla control light, replicate 1: 2.17e6; Renilla control light, replicate 2: 3.16e6

Which result is listed for mRpS18C (mitochondrial ribosomal protein S18C) [DRSC27054]?
firefly reporter light, replicate 1: 9.40e5; firefly reporter light, replicate 2: 6.18e5; Renilla control light, replicate 1: 9.83e5; Renilla control light, replicate 2: 8.55e5
